# Test system: neurons (primary culture)
# Assay: Internalization verified by confocal microscopy after immunolabeling or biotin detection
# Assay type: cell-based, mouse or rat
# Details: compared among the three peptides
substance,measurement,value
Pmyc: SEQ ID NO: 5 + peptide corresponding to the MYC sequence [EQKLISEED]; no relation to APP (KQIKIWFQNRRMKWKKEQKLISEED; listed as Homo sapiens),internalization and intracellular stability,identical

# Reference: US7115380B2, “Applications of peptides derived from the cytoplasmic domain of amyloid precursor protein (APP)” (Centre National de la Recherche Scientifique, priority 1999, dated 2006)
